# Experimental data from the supplement of paper PMC11438910.
# The other results are listed elsewhere or left out. The signal is at background level for most entries.
# B1: 4-127.2 (protein)
# chain 1: QVQLQESGPGLVKPSETLSLTCAVSGYSVNSGHGWTWIRQSPGKGLEWIGYIGGGSGSSNYNPSLKSRVTISKDTSNNQLSLKLRSLTTADTAMYYCARRVPADRSGNDYWGQGVLVTVSS
# chain 2: QSVLTQPPSVSGDPGQRVTISCTGSSSNIGDYYGYWYQQFPGTAPKLLIFDDNNRPSGISDRFSGSKAGTSASLTITGLQPGDEADYYCGAWDGSLNAHVFGSGTKLTVL
# Columns and labels:
# Test in all cases: fluorescence intensity of antibody binding to polysaccharide-coupled beads; higher = stronger binding
# [1] = molecular target: pneumococcal polysaccharide Pn44
# [2] = molecular target: pneumococcal polysaccharide Pn45
# [3] = molecular target: pneumococcal polysaccharide Pn46
# [4] = molecular target: pneumococcal polysaccharide Pn47A
# [5] = molecular target: pneumococcal polysaccharide Pn47F
# [6] = molecular target: pneumococcal polysaccharide Pn48
# [7] = molecular target: pneumococcal polysaccharide Pn5
# [8] = molecular target: pneumococcal polysaccharide Pn6A
# [9] = molecular target: pneumococcal polysaccharide Pn6B
# [10] = molecular target: pneumococcal polysaccharide Pn6C
# [11] = molecular target: pneumococcal polysaccharide Pn6D
# [12] = molecular target: pneumococcal polysaccharide Pn7A
# [13] = molecular target: pneumococcal polysaccharide Pn7B
# [14] = molecular target: pneumococcal polysaccharide Pn7C
# [15] = molecular target: pneumococcal polysaccharide Pn7F
# [16] = molecular target: pneumococcal polysaccharide Pn8
# [17] = molecular target: pneumococcal polysaccharide Pn9A
# [18] = molecular target: pneumococcal polysaccharide Pn9L
# [19] = molecular target: pneumococcal polysaccharide Pn9N
# [20] = molecular target: pneumococcal polysaccharide Pn9V
# [21] = antibody concentration 0.1 ng/mL
# [22] = antibody concentration 0.534724 ng/mL
# [23] = antibody concentration 2.8593 ng/mL
# [24] = antibody concentration 15.2894 ng/mL
# [25] = antibody concentration 81.7561 ng/mL
# [26] = antibody concentration 437.17 ng/mL
# [27] = antibody concentration 2337.65 ng/mL
# [28] = antibody concentration 12500 ng/mL
binder,measurement,setting,value
B1,fluorescence intensity,[1]; [21],24 MFI
same,fluorescence intensity,[1]; [22],23.2 MFI
same,fluorescence intensity,[1]; [23],23.5 MFI
same,fluorescence intensity,[1]; [24],25 MFI
same,fluorescence intensity,[1]; [25],24.8 MFI
same,fluorescence intensity,[1]; [26],25.8 MFI
same,fluorescence intensity,[1]; [27],27 MFI
same,fluorescence intensity,[1]; [28],32.5 MFI
same,fluorescence intensity,[2]; [21],11 MFI
same,fluorescence intensity,[2]; [22],10 MFI
same,fluorescence intensity,[2]; [23],10.5 MFI
same,fluorescence intensity,[2]; [24],10.5 MFI
same,fluorescence intensity,[2]; [25],11 MFI
same,fluorescence intensity,[2]; [26],13.5 MFI
same,fluorescence intensity,[2]; [27],12.5 MFI
same,fluorescence intensity,[2]; [28],16.5 MFI
same,fluorescence intensity,[3]; [21],22.5 MFI
same,fluorescence intensity,[3]; [22],22 MFI
same,fluorescence intensity,[3]; [23],23.5 MFI
same,fluorescence intensity,[3]; [24],22.5 MFI
same,fluorescence intensity,[3]; [25],22 MFI
same,fluorescence intensity,[3]; [26],24 MFI
same,fluorescence intensity,[3]; [27],31 MFI
same,fluorescence intensity,[3]; [28],106 MFI
same,fluorescence intensity,[4]; [21],15.8 MFI
same,fluorescence intensity,[4]; [22],15 MFI
same,fluorescence intensity,[4]; [23],14.8 MFI
same,fluorescence intensity,[4]; [24],15.5 MFI
same,fluorescence intensity,[4]; [25],15 MFI
same,fluorescence intensity,[4]; [26],15.5 MFI
same,fluorescence intensity,[4]; [27],16.5 MFI
same,fluorescence intensity,[4]; [28],31.5 MFI
same,fluorescence intensity,[5]; [21],11.5 MFI
same,fluorescence intensity,[5]; [22],12 MFI
same,fluorescence intensity,[5]; [23],11.2 MFI
same,fluorescence intensity,[5]; [24],11 MFI
same,fluorescence intensity,[5]; [25],11.5 MFI
same,fluorescence intensity,[5]; [26],13.2 MFI
same,fluorescence intensity,[5]; [27],18.5 MFI
same,fluorescence intensity,[5]; [28],88.2 MFI
same,fluorescence intensity,[6]; [21],20 MFI
same,fluorescence intensity,[6]; [22],20 MFI
same,fluorescence intensity,[6]; [23],20 MFI
same,fluorescence intensity,[6]; [24],19.8 MFI
same,fluorescence intensity,[6]; [25],21.5 MFI
same,fluorescence intensity,[6]; [26],28 MFI
same,fluorescence intensity,[6]; [27],32.2 MFI
same,fluorescence intensity,[6]; [28],44.2 MFI
same,fluorescence intensity,[7]; [21],8.5 MFI
same,fluorescence intensity,[7]; [22],8 MFI
same,fluorescence intensity,[7]; [23],8.5 MFI
same,fluorescence intensity,[7]; [24],8.5 MFI
same,fluorescence intensity,[7]; [25],8.75 MFI
same,fluorescence intensity,[7]; [26],10.8 MFI
same,fluorescence intensity,[7]; [27],18.5 MFI
same,fluorescence intensity,[7]; [28],108 MFI
same,fluorescence intensity,[8]; [21],20.2 MFI
same,fluorescence intensity,[8]; [22],21 MFI
same,fluorescence intensity,[8]; [23],22 MFI
same,fluorescence intensity,[8]; [24],20 MFI
same,fluorescence intensity,[8]; [25],21.8 MFI
same,fluorescence intensity,[8]; [26],24.2 MFI
same,fluorescence intensity,[8]; [27],28.5 MFI
same,fluorescence intensity,[8]; [28],34 MFI
same,fluorescence intensity,[9]; [21],20 MFI
same,fluorescence intensity,[9]; [22],18.8 MFI
same,fluorescence intensity,[9]; [23],17.5 MFI
same,fluorescence intensity,[9]; [24],16.5 MFI
same,fluorescence intensity,[9]; [25],19.5 MFI
same,fluorescence intensity,[9]; [26],21.8 MFI
same,fluorescence intensity,[9]; [27],23 MFI
same,fluorescence intensity,[9]; [28],31.8 MFI
same,fluorescence intensity,[10]; [21],20.8 MFI
same,fluorescence intensity,[10]; [22],32.5 MFI
same,fluorescence intensity,[10]; [23],52.5 MFI
same,fluorescence intensity,[10]; [24],65 MFI
same,fluorescence intensity,[10]; [25],79.8 MFI
same,fluorescence intensity,[10]; [26],69 MFI
same,fluorescence intensity,[10]; [27],76.2 MFI
same,fluorescence intensity,[10]; [28],86.8 MFI
same,fluorescence intensity,[11]; [21],16 MFI
same,fluorescence intensity,[11]; [22],16.5 MFI
same,fluorescence intensity,[11]; [23],15.5 MFI
same,fluorescence intensity,[11]; [24],16 MFI
same,fluorescence intensity,[11]; [25],16 MFI
same,fluorescence intensity,[11]; [26],20 MFI
same,fluorescence intensity,[11]; [27],18.5 MFI
same,fluorescence intensity,[11]; [28],25.8 MFI
same,fluorescence intensity,[12]; [21],19 MFI
same,fluorescence intensity,[12]; [22],18.8 MFI
same,fluorescence intensity,[12]; [23],19.5 MFI
same,fluorescence intensity,[12]; [24],18.2 MFI
same,fluorescence intensity,[12]; [25],20.5 MFI
same,fluorescence intensity,[12]; [26],22.5 MFI
same,fluorescence intensity,[12]; [27],57.5 MFI
same,fluorescence intensity,[12]; [28],484 MFI
same,fluorescence intensity,[13]; [21],15.5 MFI
same,fluorescence intensity,[13]; [22],16.2 MFI
same,fluorescence intensity,[13]; [23],16.5 MFI
same,fluorescence intensity,[13]; [24],16.5 MFI
same,fluorescence intensity,[13]; [25],15.5 MFI
same,fluorescence intensity,[13]; [26],16.5 MFI
same,fluorescence intensity,[13]; [27],22 MFI
same,fluorescence intensity,[13]; [28],66.8 MFI
same,fluorescence intensity,[14]; [21],16 MFI
same,fluorescence intensity,[14]; [22],14 MFI
same,fluorescence intensity,[14]; [23],14.2 MFI
same,fluorescence intensity,[14]; [24],15.8 MFI
same,fluorescence intensity,[14]; [25],14.2 MFI
same,fluorescence intensity,[14]; [26],15 MFI
same,fluorescence intensity,[14]; [27],19.5 MFI
same,fluorescence intensity,[14]; [28],64 MFI
same,fluorescence intensity,[15]; [21],14.5 MFI
same,fluorescence intensity,[15]; [22],14.8 MFI
same,fluorescence intensity,[15]; [23],13.5 MFI
same,fluorescence intensity,[15]; [24],13.5 MFI
same,fluorescence intensity,[15]; [25],16 MFI
same,fluorescence intensity,[15]; [26],19.5 MFI
same,fluorescence intensity,[15]; [27],44.5 MFI
same,fluorescence intensity,[15]; [28],294 MFI
same,fluorescence intensity,[16]; [21],21 MFI
same,fluorescence intensity,[16]; [22],19.8 MFI
same,fluorescence intensity,[16]; [23],21.5 MFI
same,fluorescence intensity,[16]; [24],20 MFI
same,fluorescence intensity,[16]; [25],21.2 MFI
same,fluorescence intensity,[16]; [26],28.5 MFI
same,fluorescence intensity,[16]; [27],31.5 MFI
same,fluorescence intensity,[16]; [28],41 MFI
same,fluorescence intensity,[17]; [21],19.8 MFI
same,fluorescence intensity,[17]; [22],18.2 MFI
same,fluorescence intensity,[17]; [23],18.8 MFI
same,fluorescence intensity,[17]; [24],19 MFI
same,fluorescence intensity,[17]; [25],18.8 MFI
same,fluorescence intensity,[17]; [26],19 MFI
same,fluorescence intensity,[17]; [27],26 MFI
same,fluorescence intensity,[17]; [28],75 MFI
same,fluorescence intensity,[18]; [21],17 MFI
same,fluorescence intensity,[18]; [22],16.5 MFI
same,fluorescence intensity,[18]; [23],17.5 MFI
same,fluorescence intensity,[18]; [24],17 MFI
same,fluorescence intensity,[18]; [25],17.2 MFI
same,fluorescence intensity,[18]; [26],16 MFI
same,fluorescence intensity,[18]; [27],19.5 MFI
same,fluorescence intensity,[18]; [28],41 MFI
same,fluorescence intensity,[19]; [21],14.5 MFI
same,fluorescence intensity,[19]; [22],14.5 MFI
same,fluorescence intensity,[19]; [23],16 MFI
same,fluorescence intensity,[19]; [24],16 MFI
same,fluorescence intensity,[19]; [25],16.5 MFI
same,fluorescence intensity,[19]; [26],15.5 MFI
same,fluorescence intensity,[19]; [27],20.5 MFI
same,fluorescence intensity,[19]; [28],60.5 MFI
same,fluorescence intensity,[20]; [21],14 MFI
same,fluorescence intensity,[20]; [22],13.8 MFI
same,fluorescence intensity,[20]; [23],15 MFI
same,fluorescence intensity,[20]; [24],13.5 MFI
same,fluorescence intensity,[20]; [25],14.5 MFI
same,fluorescence intensity,[20]; [26],18 MFI
same,fluorescence intensity,[20]; [27],18.5 MFI
same,fluorescence intensity,[20]; [28],22.2 MFI

# Laid out differently: results already given.
binder	measurement	setting	value
B1	fluorescence intensity	[2]; [23]	10.5 MFI
same	fluorescence intensity	[2]; [24]	10.5 MFI
same	fluorescence intensity	[2]; [25]	11 MFI

# 3 consecutive entries out of the list so far:
binder,measurement,setting,value
B1,fluorescence intensity,[17]; [23],18.8 MFI
same,fluorescence intensity,[17]; [24],19 MFI
same,fluorescence intensity,[17]; [25],18.8 MFI

# 6 entries from above, with tabs:
binder	measurement	setting	value
B1	fluorescence intensity	[5]; [21]	11.5 MFI
same	fluorescence intensity	[5]; [27]	18.5 MFI
same	fluorescence intensity	[8]; [25]	21.8 MFI
same	fluorescence intensity	[10]; [24]	65 MFI
same	fluorescence intensity	[14]; [24]	15.8 MFI
same	fluorescence intensity	[16]; [26]	28.5 MFI
